Test results reported in PubChem BioAssay AID2685 (National Center for Advancing Translational Sciences (NCATS), 2010).
The other results are listed elsewhere or left out. The main result of the screen is listed elsewhere. These columns were measured beside it and carry no call. Compounds called inactive in the main read-out are mostly missing here. Words in brackets tell the shape of the fitted curve; partial curves, single points and poor fits give uncertain potencies.

Test: qHTS Assay for Lipid Storage Modulators in Drosophila S3 Cells;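 for cell number change: cells counted by Cell Tracker Red CMTPX staining in the red channel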
Conditions: BODIPY lipid droplet fluorescence, 18-24 h; for cell number change: measured here: cell count max response, cells fed with added oleic acid
Method in brief: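 Drosophila S3 cells loaded with oleic acid (400 uM, as added) and compounds at several concentrations; lipid droplets imaged by 488-nm laser-scanning cytometry, 500–530 nm intensity and object ratio to cell channel. Percent activity normalized to 20 uM Triacsin C.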

[1] = measured here: cell number channel AC50, cells fed with added oleic acid
[2] = measured here: lipid fluorescence (Fed channel) AC50, cells fed with added oleic acid

Structure (SMILES) | cell number change [%] | AC50 [1] | AC50 [2]
CC(C)CCC1(C)NC(=O)N(CC(=O)c2ccc[nH]2)C1=O (configuration not stated) | -85.9 | 32.6 µM [falling, partial curve, poor fit] | –
CC(C)c1ccc(NC(=O)c2cc(S(=O)(=O)N3CCCCC3)c[nH]2)cc1 | 23.7 | 0.00411 µM [rising, full curve, poor fit] | –
Cc1cc(NC(=O)CSc2ncc(CO)n2Cc2ccc(F)cc2)no1 | 94.7 | 16.4 µM [rising, partial curve] | –
COc1cccc(NC=C2C(=O)OC(C)(C)OC2=O)c1 | 1.19 | – | 0.651 µM [falling, single point]
O=C(O)CCC(=O)Nc1ccccc1C(=O)NCCc1ccccc1 | – | – | 0.366 µM [falling, full curve, poor fit]
CCOC(=O)[C@H]1[C@H]2COc3cc(OC)ccc3[C@@H]2N2C(=O)N(c3ccc(Br)cc3)C(=O)[C@@]12C | 26.5 | – | 29.1 µM [rising, single point]
O=C(N/N=C/c1ccc(OC(=O)c2ccco2)cc1)c1ccccn1 | -16.5 | – | 0.92 µM [falling, full curve]
Cc1cccc(C(=O)NCC(=O)OCC(=O)c2cc(C)n(CC3CCCO3)c2C)c1 (configuration not stated) | 26.3 | 2.31 µM [rising, full curve, poor fit] | 4.61 µM [rising, single point]
O=C1Cc2cc(S(=O)(=O)Nc3cccc(F)c3)ccc2N1 | -12.5 | – | 23.1 µM [rising, partial curve]
COC(=O)/C=c1/s/c(=C(/C#N)C(=O)N2CCOCC2)n(-c2ccccc2)c1=O | -55.1 | 3.66 µM [falling, full curve] | 3.66 µM [falling, full curve]
Cc1cccc(NC(=O)Cn2cnc3c(oc4ccccc43)c2=O)c1C | 32.7 | 0.184 µM [rising, full curve, poor fit] | –
O=C(c1cc(C(=O)NCCc2ccccc2)c(=O)n(CCc2ccccc2)c1)c1cc(Cl)ccc1O | -1.79 | – | –
O=C(COc1ncnc2c(Cl)cc(Cl)cc12)Nc1cc([N+](=O)[O-])ccc1Cl | -37.4 | 29.1 µM [falling, single point] | –
COc1ccc(C(=O)/C=C/C(=O)N(CC(=O)NC2CCCCC2)Cc2ccccc2OC)c(O)c1 | -38.5 | 9.2 µM [falling, partial curve] | –
O=C(NCc1ccccc1Cl)c1csc2c1CCCCC2 | 43.3 | 11.6 µM [rising, single point] | –
O=C(Nc1ccccc1C(=O)Nc1ccccn1)c1cc(F)c(F)cc1Cl | – | – | 0.651 µM [rising, full curve]
O=C(Oc1ccccc1N1C(=O)C2CCCCC2C1=O)c1ccc(Cl)cc1 (configuration not stated) | -2.39 | – | 0.291 µM [falling, partial curve]
O=C(/C=C/c1ccc(Cl)cc1)NC(=S)NN1CCCCC1c1cccnc1 (configuration not stated) | -7.22 | 6.51 µM [rising, single point] | –
COc1ccc(C(=O)n2nc(-c3ccco3)nc2N)cc1 | -14 | – | 7.31 µM [falling, partial curve, poor fit]
C=CCn1cc(C(=O)NCc2ccc(Cl)cc2)c(=O)c2cc(S(=O)(=O)N(CC)CC)ccc21 | -50.1 | 29.1 µM [falling, single point] | 0.411 µM [rising, partial curve]

Shown field by field: 4 of the compounds above
Cc1cccc(C(=O)NCC(=O)OCC(=O)c2cc(C)n(CC3CCCO3)c2C)c1 (configuration not stated)
  cell number change [%]: 26.3
  AC50 [1]: 2.31 µM [rising, full curve, poor fit]
  AC50 [2]: 4.61 µM [rising, single point]
O=C1Cc2cc(S(=O)(=O)Nc3cccc(F)c3)ccc2N1
  cell number change [%]: -12.5
  AC50 [2]: 23.1 µM [rising, partial curve]
COC(=O)/C=c1/s/c(=C(/C#N)C(=O)N2CCOCC2)n(-c2ccccc2)c1=O
  cell number change [%]: -55.1
  AC50 [1]: 3.66 µM [falling, full curve]
  AC50 [2]: 3.66 µM [falling, full curve]
Cc1cccc(NC(=O)Cn2cnc3c(oc4ccccc43)c2=O)c1C
  cell number change [%]: 32.7
  AC50 [1]: 0.184 µM [rising, full curve, poor fit]

Next part:

Structure (SMILES) | cell number change [%] | AC50 [1] | AC50 [2]
Cn1c2ccccc2c2cc(C(=O)OCC(=O)N3CC(=O)Nc4ccccc43)sc21 | -9.13 | – | 0.366 µM [rising, full curve]
O=C(NNC(=O)c1ccccc1F)c1cccs1 | -5.13 | – | –
COc1ccccc1C(=O)NC(=S)Nc1ccc(NC(=O)c2cccs2)cc1 | -13.9 | – | –
COc1ccc(CNC(=O)CCCNC(=O)c2ccc(Cl)cc2)cc1OC | 7.21 | 2.59 µM [rising, partial curve, poor fit] | –
COC(=O)N/N=C/c1ccccc1OCCOc1ccc(OC)cc1 | 25.8 | 1.3 µM [rising, full curve, poor fit] | –
CCCCNC(=O)C1C2C=CC(C2)C1C(=O)O (configuration not stated) | 11.1 | 0.00517 µM [rising, full curve, poor fit] | 0.13 µM [rising, full curve, poor fit]
CC(=O)c1c(N2CCOCC2)nc(=S)n(-c2ccc([N+](=O)[O-])cc2)c1C | – | – | 0.517 µM [rising, full curve, poor fit]
O=C1[C@@H]2[C@H]3CC[C@H](C3)[C@@H]2C(=O)N1O | -4.48 | – | –
O=C(Nc1cccnc1)C1CCCN(S(=O)(=O)c2ccccc2)C1 (configuration not stated) | 73.5 | 29.1 µM [rising, single point] | –
Cc1c(C)n2c(SCC(=O)Nc3ccc4c(c3)OCCO4)nnc2[nH]c1=O | -11.2 | – | –
COCCn1c(SCC(=O)Nc2sccc2C(N)=O)nc2cc(Cl)ccc2c1=O | -32.4 | 0.103 µM [falling, full curve, poor fit] | 0.116 µM [falling, full curve, poor fit]
O=C(CN1CCOCC1)NCCc1ccccc1 | 5.25 | – | –
COc1ccc(C(=O)Nn2c(SCC(=O)NC3CCCC3)nc3ccccc3c2=O)cc1 | 8.82 | – | 5.17 µM [rising, full curve]
S=c1[nH]nc(C2CCCCC2)n1/N=C/c1ccc(Br)s1 | -43.2 | 25.9 µM [falling, single point] | 23.1 µM [falling, partial curve, poor fit]
CCC(C)NC(=O)Cn1cc2c(n1)CCC(C)C2 (configuration not stated) | -1.32 | – | 0.58 µM [falling, full curve, poor fit]
CCc1ccccc1NC(=O)Nc1cc(F)ccc1F | 47.1 | 0.651 µM [rising, full curve] | 0.366 µM [rising, full curve]
O=C(NC1CCCCC1)c1cc(-c2cccs2)on1 | 23.3 | – | –
O=C(/C=C/c1cccc(F)c1)Nc1cc(S(=O)(=O)N2CCOCC2)ccc1N1CCCC1 | -66.7 | 29.1 µM [falling, single point] | –
O=C(CCCC1=NS(=O)(=O)c2ccccc2N1)Nc1ccccc1 | – | – | 16.4 µM [falling, partial curve, poor fit]
COc1ccc(Cl)cc1C(=O)NNC(=O)COC(=O)CCN=C1NS(=O)(=O)c2ccccc21 | – | – | 6.51 µM [rising, single point]

Structure (SMILES) | cell number change [%] | AC50 [1] | AC50 [2]
CCOc1ccccc1Nc1nnc(SCC(=O)Nc2nc(-c3ccc(OC)cc3)cs2)s1 | -19.7 | 2.59 µM [falling, single point] | 0.146 µM [falling, full curve, poor fit]
O=C(CCN1CCCCCC1)Nc1cccc(Cl)c1 | 3.26 | – | 18.4 µM [falling, single point]
O=C(CN(Cc1ccco1)C(=O)c1cccc(F)c1)Nc1ccccc1C(F)(F)F | 25.2 | 1.64 µM [falling, single point] | –
COc1cc(C(C[N+](=O)[O-])c2c(N)n(C)c(=O)n(C)c2=O)ccc1O (configuration not stated) | -93.4 | 29.1 µM [falling, single point] | 29.1 µM [falling, single point]
Cc1onc(-c2ccccc2)c1C1=N/C(=C\c2ccccc2F)C(=O)O1 | 10 | 0.146 µM [rising, partial curve, poor fit] | 0.13 µM [rising, full curve, poor fit]
Cc1c(C)n(C)c2ccc(C(=O)N3CCN(c4ccccn4)CC3)cc12 | 2.13 | – | 0.651 µM [rising, full curve, poor fit]
Cc1ccnc(NC(=O)c2cccs2)c1 | -5.94 | – | –
Cn1c(CCC(=O)Nc2cc(S(C)(=O)=O)ccc2Cl)nc2cc(S(=O)(=O)N3CCOCC3)ccc21 | – | 4.61 µM [falling, single point] | –
COc1cc(OC)c(C2=NOC(C(=O)N3CCc4ccccc4C3)C2)cc1Cl (configuration not stated) | – | 0.58 µM [rising, single point] | 0.259 µM [rising, partial curve, poor fit]
Cn1c(C(=O)N2CCN(Cc3ccc4c(c3)OCO4)CC2)cc2c(=O)n(C)c3ccccc3c21 | 6.78 | – | 16.4 µM [rising, partial curve, poor fit]
CCN(CC)c1ccc(S(=O)(=O)N2CCOCC2)cc1NC(=O)COC(=O)c1cccnc1SC | – | – | 29.1 µM [falling, single point]
COc1cc(OC)cc(C(=O)OCc2ccc([N+](=O)[O-])cc2)c1 | -18.9 | – | –
O=C(O)c1ccc(NCc2nc3ccccc3n2Cc2ccccc2F)cc1 | 4.59 | – | 6.51 µM [falling, single point]
CCNC(=S)Nc1ccc(Cl)c(C(F)(F)F)c1 | -16.4 | – | 29.1 µM [falling, single point]
CCOC(=O)C1CCCN(C(=O)CCNS(=O)(=O)c2cc(Br)cnc2N)C1 (configuration not stated) | 73.9 | 18.4 µM [rising, partial curve] | 20.6 µM [rising, single point]
Cc1ccc(NC(=O)c2cccc3cccnc23)cc1 | 0.435 | – | 29.1 µM [rising, single point]
CC(C)COc1cccc(-c2cc(C(=O)Nc3ccon3)c3ccccc3n2)c1 | 6.76 | – | 29.1 µM [falling, single point]
COc1cc(C(=O)CSc2nncn2C)cc(OC)c1OC | 16.6 | – | –
CCOc1ccc(OCC)c(NC(=O)CSc2nnc(-c3cccnc3)o2)c1 | -3.31 | – | 0.82 µM [rising, single point]
